In US20260234269A1:
These are yes or no findings as the source states them, for the method shown. In cells and extracts the contact can be indirect. Some entries that bind do so weakly or less than the wild type.

The chains behind the UniProt entries cited, without tags or fusion partners. Where a name states a change or a piece, a line headed by the entry shows the natural chain unless it says otherwise.
UniProt P17931: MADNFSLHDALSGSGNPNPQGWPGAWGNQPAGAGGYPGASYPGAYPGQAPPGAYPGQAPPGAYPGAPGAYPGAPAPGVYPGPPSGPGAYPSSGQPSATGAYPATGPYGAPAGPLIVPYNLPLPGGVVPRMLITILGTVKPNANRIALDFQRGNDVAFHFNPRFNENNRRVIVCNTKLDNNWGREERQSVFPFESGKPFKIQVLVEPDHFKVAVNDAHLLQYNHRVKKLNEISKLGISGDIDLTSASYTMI
UniProt Q8TDQ0: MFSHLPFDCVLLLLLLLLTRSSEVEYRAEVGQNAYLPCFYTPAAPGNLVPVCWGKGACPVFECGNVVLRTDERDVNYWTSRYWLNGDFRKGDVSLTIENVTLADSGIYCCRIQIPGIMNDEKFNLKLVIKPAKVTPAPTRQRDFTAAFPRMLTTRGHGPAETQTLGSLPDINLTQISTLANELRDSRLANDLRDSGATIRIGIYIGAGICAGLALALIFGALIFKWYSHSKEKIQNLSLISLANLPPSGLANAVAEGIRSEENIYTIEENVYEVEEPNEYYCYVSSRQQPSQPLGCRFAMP

Target: Flag-tagged human Gal3 expressed in 293T cells (human) (UniProt P17931)
Assay: pull-down, Fc protein coated plate, protein G beads, anti-Flag blot

binding: binds
Substance: human TIM-3 Fc (hTIM-3 extracellular domain fused with the Fc portion of hIgG) (from UniProt Q8TDQ0 22-202) (Fc fusion)
